Data as given in PubChem BioAssay AID686938 (Drosophila RNAi Screening Center, 2013).

Screen: 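Fly genes required for calcium entry once internal stores are emptied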 (primary screen)
Cells: Drosophila S2R+ cells
Reagents: long dsRNA against Drosophila genes, about 0.25 µg dsRNA per well, roughly 10,000 cells
Time to read-out: 5 days of knock-down before the calcium assay
Treatment: thapsigargin (SERCA pump blocker) to empty calcium stores; entry signal taken 4 min after adding it
Detection: 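Duplicate raw fluo-4 intensities per well from a plate reader, at rest and four minutes after thapsigargin emptied calcium stores; entry-to-rest ratio filled for only some wells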
Scale: calcium entry signal: higher = stronger calcium signal after store depletion; entry to resting ratio: higher = more calcium entry relative to resting level; resting calcium signal: higher = higher resting calcium signal
Hit rule: 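Called when the plate z-score of the entry-to-rest ratio, mean of duplicates, falls below −3; wells with low overall dye signal (Fmax z below −2) or more than five off-targets excluded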
Calls: active = strongly reduced calcium entry; inactive = no strong reduction
In all, the deposit lists about 23,000 reagents; shown is an unselected part of those that have a named target and a result. Of all reagents, 75 (0.33%) were called active. 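Raw plate signals without normalisation; calls rest on plate z-scores that were not deposited; ratio present for only 364 wells.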 A number with no mark means an inactive call. A plus sign joins genes that one reagent is predicted to hit. Not given: the dose of the treatment.

no.	target gene	dsRNA	calcium entry signal, replicate 1 (fluorescence units)	calcium entry signal, replicate 2 (fluorescence units)	entry to resting ratio	resting calcium signal, replicate 1 (fluorescence units)	resting calcium signal, replicate 2 (fluorescence units)
1	fuss	DRSC17200	4.00e7	5.78e7	2	1.99e7	2.38e7
2	fuss	DRSC21452	3.57e7	3.11e7		1.98e7	1.44e7
3	Chi	DRSC04602	4.66e7			2.26e7	
4	TfIIFbeta	DRSC16884	4.00e7	3.89e7		1.98e7	2.23e7
5	TfIIFbeta	DRSC21447	3.05e7	2.33e7		1.87e7	1.16e7
6	CG8854	DRSC07288	4.21e7	4.27e7		1.77e7	1.89e7
7	Prosbeta2R1	DRSC18154	3.27e7	4.58e7		1.71e7	2.11e7
8	CG34436	DRSC15164	3.19e7	4.47e7		1.71e7	2.01e7
9	boi	DRSC18425	4.15e7	4.05e7	2.1	2.01e7	1.78e7
10	boi	DRSC18598	4.83e7	4.58e7	2	2.42e7	1.94e7
11	emc	DRSC08715	3.15e7	2.16e7		1.55e7	1.23e7
12	emc	DRSC23238	3.00e7	3.05e7		1.68e7	1.42e7
13	Jhbp15	DRSC15217	3.71e7	4.51e7		5.52e7	1.88e7
14	GABPI	DRSC00494	4.52e7			2.27e7	
15	naz	DRSC14790	3.80e7	5.06e7		5.21e7	2.19e7
16	naz	DRSC16199	3.74e7	4.22e7		4.44e7	1.92e7
17	Stlk	DRSC22687	2.74e7	3.25e7		1.44e7	1.41e7
18	CG14722	DRSC14944	3.03e7	3.46e7		1.33e7	1.70e7
19	MCU	DRSC10339	2.92e7	4.68e7		1.28e7	2.07e7
20	CG10984	DRSC09817	5.57e7	4.36e7		3.43e7	1.82e7
21	Or56a	DRSC07495	5.60e7	6.33e7		2.36e7	2.95e7
22	Fatp3	DRSC04366	3.27e7	3.82e7		1.81e7	1.79e7
23	dan	DRSC14406	3.87e7	3.64e7		1.92e7	1.46e7
24	tank	DRSC00461	2.93e7	2.70e7		1.43e7	1.32e7
25	exu	DRSC07615	4.23e7	3.28e7		1.94e7	1.68e7
26	Lcp1	DRSC07455	5.73e7	4.04e7		2.59e7	1.81e7
27	CG4408	DRSC15574	4.96e7	4.80e7		2.38e7	2.00e7
28	Irp-1A	DRSC16719	5.09e7	5.43e7		2.41e7	2.45e7
29	CkIIbeta2	DRSC07361	5.05e7	5.40e7		2.30e7	2.64e7
30	Nha1	DRSC02109	4.09e7			1.84e7	
31	CG30020	DRSC06252	3.80e7	1.93e7		1.73e7	1.10e7
32	CG30020	DRSC06730	3.89e7	4.80e7		1.89e7	1.95e7
33	Vha68-3	DRSC02809	4.72e7	3.10e7		2.18e7	1.62e7
34	koi	DRSC04980	2.70e7	2.78e7		1.21e7	1.19e7
35	koi	DRSC04991	2.80e7	3.18e7		1.19e7	1.41e7
36	CG18269	DRSC02660	3.13e7	2.91e7		1.45e7	1.37e7
37	so	DRSC07693	4.94e7	6.90e7		2.34e7	2.81e7
38	so	DRSC23096	3.98e7	4.12e7		1.76e7	1.69e7
39	CG8927	DRSC16458	3.50e7	6.43e7		1.91e7	7.94e7

Entries above whose gene name starts with B or b (2):
target gene	dsRNA	calcium entry signal, replicate 1 (fluorescence units)	calcium entry signal, replicate 2 (fluorescence units)	entry to resting ratio	resting calcium signal, replicate 1 (fluorescence units)	resting calcium signal, replicate 2 (fluorescence units)
boi	DRSC18425	4.15e7	4.05e7	2.1	2.01e7	1.78e7
boi	DRSC18598	4.83e7	4.58e7	2	2.42e7	1.94e7

Continued.
no.	target gene	dsRNA	calcium entry signal, replicate 1 (fluorescence units)	calcium entry signal, replicate 2 (fluorescence units)	entry to resting ratio	resting calcium signal, replicate 1 (fluorescence units)	resting calcium signal, replicate 2 (fluorescence units)
40	Vap33	DRSC18384	3.53e7	5.03e7		1.69e7	2.48e7
41	CG42715 (retired record)	DRSC05499	4.07e7	3.60e7		3.83e7	1.69e7
42	CG11470	DRSC14313	3.15e7	4.39e7		1.62e7	2.04e7
43	mus304	DRSC11372	3.61e7	6.28e7		1.85e7	2.48e7
44	eya	DRSC03510	4.76e7			2.20e7	
45	lncRNA:CR41601	DRSC22158	3.00e7	4.39e7		1.44e7	2.32e7
46	Dhdds	DRSC17756	2.21e7	3.05e7		1.18e7	1.55e7
47	Ilp1	DRSC10174	3.24e7	4.95e7		1.77e7	2.17e7
48	Ice1	DRSC04191	1.84e7	1.87e7		1.12e7	1.02e7
49	Lis-1	DRSC07459	4.30e7	3.71e7		1.89e7	1.78e7
50	PIG-C	DRSC08241	2.92e7	3.50e7		1.54e7	1.68e7
51	Tsp	DRSC02144	4.03e7			1.78e7	
52	Tsp	DRSC02145	2.97e7	2.94e7		1.48e7	1.45e7
53	Hsc70-5	DRSC07442	2.65e7	4.51e7		1.39e7	2.19e7
54	CG33552	DRSC01551	2.37e7	3.35e7		1.25e7	1.41e7
55	Ibf1	DRSC16419	3.64e7	3.65e7		1.76e7	1.68e7
56	RpL28 + snoRNA:Or-CD12	DRSC08293	1.29e7	1.26e7		8.71e6	9.06e6
57	CG14631	DRSC17792	3.60e7	5.43e7	2	1.79e7	2.34e7
58	CG14631	DRSC17941	3.27e7	4.82e7	2	1.61e7	2.13e7
59	CG33127	DRSC00011	3.01e7	3.13e7		1.60e7	1.36e7
60	wmd	DRSC04436	4.81e7			2.38e7	
61	aub	DRSC03486	4.39e7			1.86e7	
62	axed	DRSC08833	2.85e7	5.03e7		1.51e7	2.23e7
63	axed	DRSC10982	3.02e7	4.79e7		1.41e7	2.03e7
64	Pde1c	DRSC02421	3.50e7	4.27e7		1.84e7	1.84e7
65	Pde1c	DRSC02422	3.59e7	4.07e7		1.91e7	1.80e7
66	Pde1c	DRSC02423	3.71e7	5.05e7		1.91e7	2.27e7
67	Pde1c	DRSC02424	3.22e7	4.14e7		1.73e7	1.84e7
68	Pde1c	DRSC02425	2.69e7	1.91e7		1.27e7	9.79e6
69	Pde1c	DRSC02426	2.86e7	1.89e7		1.41e7	9.98e6
70	CG7903	DRSC16338	4.20e7	5.52e7		2.20e7	2.51e7
71	MED26	DRSC17126	3.89e7	3.45e7		1.74e7	1.42e7
72	MED26	DRSC17147	3.33e7	4.14e7	2	1.64e7	1.93e7
73	MED26	DRSC17148	2.78e7	2.92e7		1.46e7	1.57e7
74	cuff	DRSC06315	3.65e7	4.17e7		1.83e7	1.86e7
75	Cpsf100	DRSC14146	2.54e7	2.44e7		1.27e7	1.22e7
